The text below walks through data of PubChem BioAssay AID488922 (Johns Hopkins Ion Channel Center, 2010).

SMILES strings stand for the structures. The list shows a part of the results.

A short description of this experiment: KCNK9 potassium channel inhibitors, primary screen, HEK293 cells, thallium flux (AID 488922).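 Note: negative B-score means less thallium flux so channel inhibition.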 To be noted: HEK293 KCNK9, FluxOR thallium flux fluorescence; initial fluorescence intensity artifact flag; at 10 µM.
`CC(C)(C)OC(=O)N1CCC(N(C(=O)c2ccccc2)c2ccc(Cl)cc2)CC1` showed a B-score of -1.24.
The value for `COc1cccc(C(=O)N(c2cc(C)cc(C)c2)C2CCN(C(=O)OC(C)(C)C)CC2)c1` was -2.43; that for `CC(C)(C)OC(=O)N1CCC(N(C(=O)c2ccccc2)c2ccc(F)cc2)CC1` was 0.029; that for `Cc1cc(C)cc(N(C(=O)c2ccccc2)C2CCN(C(=O)OC(C)(C)C)CC2)c1` was -1.26.
